Measured values published in patent publication US20230146675A1, “PYRIMIDO[5,4-d]PYRIMIDINE DERIVATIVES AS ENT INHIBITORS FOR THE TREATMENT OF CANCERS, AND COMBINATION THEREOF WITH ADENOSINE RECEPTOR ANTAGONISTS” (ITEOS BELGIUM SA, priority 2020, published 2023).
The match of structure and compound is tentative.

By UniProt entry, the sequences of proteins in these tests, tags left out.
UniProt Q99808, whole entry: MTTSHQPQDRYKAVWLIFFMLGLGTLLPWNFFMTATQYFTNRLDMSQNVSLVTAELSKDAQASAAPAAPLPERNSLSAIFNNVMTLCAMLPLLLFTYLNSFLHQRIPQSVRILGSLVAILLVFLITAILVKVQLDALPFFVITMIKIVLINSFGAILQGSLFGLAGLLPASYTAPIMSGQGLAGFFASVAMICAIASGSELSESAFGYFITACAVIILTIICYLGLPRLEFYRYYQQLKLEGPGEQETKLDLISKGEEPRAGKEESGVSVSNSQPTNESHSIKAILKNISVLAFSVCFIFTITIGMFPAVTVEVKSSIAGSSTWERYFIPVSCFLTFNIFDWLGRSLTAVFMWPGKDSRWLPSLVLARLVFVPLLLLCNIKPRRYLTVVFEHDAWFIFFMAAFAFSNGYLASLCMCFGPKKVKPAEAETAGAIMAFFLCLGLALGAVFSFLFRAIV

Biological target: human ENT1 (Homo sapiens, UniProt Q99808)
Test: ENT1 binding assay (competition with Sahenta-DY647 on JAR cells)
Conditions: read-out: Binding Assay IC50, binned IC50

Structure (SMILES)	IC50 [nM]
COCCN(CCOC)c1nc(N2CCN(c3nccs3)CC2)c2nc(N(CCO)CCO)nc(N3CCN(c4nccs4)CC3)c2n1	100 to 500
COCCN(CCOC)c1nc(N2CCN(c3nccs3)CC2)c2nc(N(CCOC)CCOC)nc(N3CCCCC3)c2n1	100 to 500
